Measured values taken from article PMC5859036.
Results are given in words; binding and its absence hold for the method and conditions named. Binding seen in cells or lysates may run through a third protein. Some results given as binding are weak or reduced against the parent protein; the word gives no strength.

The chains behind the UniProt entries cited, without tags or fusion partners.
UniProt P07355: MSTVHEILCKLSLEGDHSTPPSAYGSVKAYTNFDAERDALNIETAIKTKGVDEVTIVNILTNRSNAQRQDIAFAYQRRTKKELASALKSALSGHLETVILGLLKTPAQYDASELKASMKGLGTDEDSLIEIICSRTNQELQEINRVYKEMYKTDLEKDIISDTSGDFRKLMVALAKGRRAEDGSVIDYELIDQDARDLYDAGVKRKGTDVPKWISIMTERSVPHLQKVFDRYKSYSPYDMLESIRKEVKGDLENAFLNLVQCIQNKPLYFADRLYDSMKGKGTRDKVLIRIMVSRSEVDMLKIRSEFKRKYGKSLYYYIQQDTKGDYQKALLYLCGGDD
UniProt P35222: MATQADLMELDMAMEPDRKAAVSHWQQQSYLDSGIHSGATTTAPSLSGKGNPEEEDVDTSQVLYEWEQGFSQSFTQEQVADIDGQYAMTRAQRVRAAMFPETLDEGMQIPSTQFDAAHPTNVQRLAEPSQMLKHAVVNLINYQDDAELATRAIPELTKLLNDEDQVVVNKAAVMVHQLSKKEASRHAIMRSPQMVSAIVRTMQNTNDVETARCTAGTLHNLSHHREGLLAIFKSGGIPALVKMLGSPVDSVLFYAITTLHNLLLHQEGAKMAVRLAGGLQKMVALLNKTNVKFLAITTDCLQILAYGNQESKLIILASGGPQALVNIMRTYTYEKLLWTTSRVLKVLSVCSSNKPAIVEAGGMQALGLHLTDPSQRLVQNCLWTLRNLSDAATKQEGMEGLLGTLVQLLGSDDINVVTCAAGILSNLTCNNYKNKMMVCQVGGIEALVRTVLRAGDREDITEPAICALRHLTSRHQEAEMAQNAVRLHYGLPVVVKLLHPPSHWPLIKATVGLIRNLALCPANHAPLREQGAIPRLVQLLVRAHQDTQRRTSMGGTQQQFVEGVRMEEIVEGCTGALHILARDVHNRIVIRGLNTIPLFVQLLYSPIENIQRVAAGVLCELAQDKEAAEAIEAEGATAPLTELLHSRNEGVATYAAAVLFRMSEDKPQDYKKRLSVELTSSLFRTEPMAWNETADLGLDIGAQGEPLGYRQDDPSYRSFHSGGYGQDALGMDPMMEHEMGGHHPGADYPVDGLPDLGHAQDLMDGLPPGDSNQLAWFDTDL

How the values were obtained:
[1] = biological target: annexin A2 (human (endogenous in A549)) (UniProt P07355); assay: co-IP; immunoprecipitation and western blotting from A549SLP2 cells; which protein was precipitated is not told in the text shown (Supplemental Fig. 4A)
[2] = biological target: T1, stomatin-like protein-2 (SLP-2) (human) (UniProt Q9UJZ1); assay: as above
T1 sequence: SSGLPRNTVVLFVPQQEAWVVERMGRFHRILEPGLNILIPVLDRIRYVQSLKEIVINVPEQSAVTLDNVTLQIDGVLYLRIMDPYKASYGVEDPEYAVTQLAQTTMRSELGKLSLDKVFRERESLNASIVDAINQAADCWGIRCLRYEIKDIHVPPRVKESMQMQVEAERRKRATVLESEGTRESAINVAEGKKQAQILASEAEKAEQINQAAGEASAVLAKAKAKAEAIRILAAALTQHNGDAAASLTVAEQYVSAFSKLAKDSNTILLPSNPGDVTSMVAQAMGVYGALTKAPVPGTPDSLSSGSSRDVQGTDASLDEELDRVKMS

binding [1] | binding [2] | Substance
binds |  | β-catenin (from UniProt P35222 1-781)
 | binds | annexin A2 (from UniProt P07355 1-339)
